The values that follow come from article PMC10655329.

The chains behind the UniProt entries cited, without tags or fusion partners.
UniProt P62993: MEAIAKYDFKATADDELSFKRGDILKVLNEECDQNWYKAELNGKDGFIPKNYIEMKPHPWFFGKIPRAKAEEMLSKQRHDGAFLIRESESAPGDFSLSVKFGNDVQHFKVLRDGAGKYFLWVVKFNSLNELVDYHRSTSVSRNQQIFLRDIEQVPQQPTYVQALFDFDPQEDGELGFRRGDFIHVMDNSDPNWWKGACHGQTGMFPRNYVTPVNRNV
UniProt P12270: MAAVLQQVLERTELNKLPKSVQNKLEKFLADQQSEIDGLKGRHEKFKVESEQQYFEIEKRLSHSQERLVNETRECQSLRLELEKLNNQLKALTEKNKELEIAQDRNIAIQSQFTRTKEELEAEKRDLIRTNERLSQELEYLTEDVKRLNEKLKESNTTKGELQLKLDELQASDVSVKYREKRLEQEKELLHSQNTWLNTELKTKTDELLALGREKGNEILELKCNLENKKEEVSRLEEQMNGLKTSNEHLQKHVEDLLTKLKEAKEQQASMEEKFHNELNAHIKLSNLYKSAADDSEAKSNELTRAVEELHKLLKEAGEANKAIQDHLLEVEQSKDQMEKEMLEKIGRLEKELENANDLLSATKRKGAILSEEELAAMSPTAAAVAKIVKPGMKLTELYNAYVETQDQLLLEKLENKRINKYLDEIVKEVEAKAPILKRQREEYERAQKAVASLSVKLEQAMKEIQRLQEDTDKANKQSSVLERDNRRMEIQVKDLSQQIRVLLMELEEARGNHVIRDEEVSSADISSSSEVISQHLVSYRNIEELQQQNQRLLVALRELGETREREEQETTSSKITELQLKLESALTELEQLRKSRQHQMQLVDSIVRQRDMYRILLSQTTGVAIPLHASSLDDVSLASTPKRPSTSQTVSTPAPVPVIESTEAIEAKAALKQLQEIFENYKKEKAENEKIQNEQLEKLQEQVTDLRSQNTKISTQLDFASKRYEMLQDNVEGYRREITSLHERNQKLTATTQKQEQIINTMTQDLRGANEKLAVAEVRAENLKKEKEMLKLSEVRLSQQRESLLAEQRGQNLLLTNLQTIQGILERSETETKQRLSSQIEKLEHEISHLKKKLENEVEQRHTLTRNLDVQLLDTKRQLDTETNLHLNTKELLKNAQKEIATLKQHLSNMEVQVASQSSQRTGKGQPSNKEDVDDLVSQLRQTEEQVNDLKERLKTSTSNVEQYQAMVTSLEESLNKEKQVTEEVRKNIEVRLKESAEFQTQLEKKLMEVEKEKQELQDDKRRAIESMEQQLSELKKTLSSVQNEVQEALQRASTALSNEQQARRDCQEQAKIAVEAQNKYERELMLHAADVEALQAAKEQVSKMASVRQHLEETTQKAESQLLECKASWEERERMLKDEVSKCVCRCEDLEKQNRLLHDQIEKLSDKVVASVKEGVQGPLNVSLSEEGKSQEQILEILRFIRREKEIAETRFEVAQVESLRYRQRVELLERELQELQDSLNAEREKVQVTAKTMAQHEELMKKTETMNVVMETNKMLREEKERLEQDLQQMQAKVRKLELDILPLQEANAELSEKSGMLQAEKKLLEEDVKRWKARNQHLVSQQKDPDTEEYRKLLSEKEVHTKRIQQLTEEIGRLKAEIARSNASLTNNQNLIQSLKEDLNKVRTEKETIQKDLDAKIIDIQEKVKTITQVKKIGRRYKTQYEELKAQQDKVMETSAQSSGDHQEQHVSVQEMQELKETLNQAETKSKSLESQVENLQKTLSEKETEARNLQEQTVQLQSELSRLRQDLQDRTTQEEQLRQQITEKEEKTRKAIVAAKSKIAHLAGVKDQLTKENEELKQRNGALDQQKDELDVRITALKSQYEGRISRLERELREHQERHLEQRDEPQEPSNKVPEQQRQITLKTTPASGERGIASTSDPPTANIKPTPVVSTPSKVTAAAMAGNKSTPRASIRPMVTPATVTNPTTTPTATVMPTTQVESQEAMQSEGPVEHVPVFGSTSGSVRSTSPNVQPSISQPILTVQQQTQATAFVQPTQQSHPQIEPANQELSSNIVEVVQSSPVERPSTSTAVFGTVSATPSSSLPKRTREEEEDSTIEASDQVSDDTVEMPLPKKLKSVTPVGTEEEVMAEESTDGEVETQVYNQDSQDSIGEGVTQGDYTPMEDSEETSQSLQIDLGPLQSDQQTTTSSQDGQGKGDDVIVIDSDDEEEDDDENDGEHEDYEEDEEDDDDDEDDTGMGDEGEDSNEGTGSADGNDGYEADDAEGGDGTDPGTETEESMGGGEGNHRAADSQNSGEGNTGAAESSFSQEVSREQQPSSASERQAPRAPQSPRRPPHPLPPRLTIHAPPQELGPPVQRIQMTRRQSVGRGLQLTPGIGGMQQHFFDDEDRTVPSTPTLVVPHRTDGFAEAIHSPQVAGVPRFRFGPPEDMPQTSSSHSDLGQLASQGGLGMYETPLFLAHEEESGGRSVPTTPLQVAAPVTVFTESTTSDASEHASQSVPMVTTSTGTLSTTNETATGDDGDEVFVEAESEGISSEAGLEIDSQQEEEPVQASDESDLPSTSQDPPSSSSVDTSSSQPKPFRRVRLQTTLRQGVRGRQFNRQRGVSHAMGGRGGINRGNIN
UniProt P26599: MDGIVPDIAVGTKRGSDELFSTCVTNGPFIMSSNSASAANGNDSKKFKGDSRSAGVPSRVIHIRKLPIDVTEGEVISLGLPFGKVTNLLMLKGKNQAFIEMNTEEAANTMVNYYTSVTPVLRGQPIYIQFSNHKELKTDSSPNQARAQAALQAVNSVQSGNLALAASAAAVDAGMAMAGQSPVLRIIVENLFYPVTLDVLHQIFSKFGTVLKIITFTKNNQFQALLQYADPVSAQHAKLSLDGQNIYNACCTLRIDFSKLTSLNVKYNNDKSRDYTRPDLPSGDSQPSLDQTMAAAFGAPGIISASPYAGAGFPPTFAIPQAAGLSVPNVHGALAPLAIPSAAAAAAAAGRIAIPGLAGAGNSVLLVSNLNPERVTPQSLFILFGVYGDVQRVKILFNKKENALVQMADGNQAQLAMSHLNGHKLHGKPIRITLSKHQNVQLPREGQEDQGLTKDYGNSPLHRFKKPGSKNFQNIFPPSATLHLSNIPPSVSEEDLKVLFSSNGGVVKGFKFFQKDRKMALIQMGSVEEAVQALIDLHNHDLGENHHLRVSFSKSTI
UniProt Q07820: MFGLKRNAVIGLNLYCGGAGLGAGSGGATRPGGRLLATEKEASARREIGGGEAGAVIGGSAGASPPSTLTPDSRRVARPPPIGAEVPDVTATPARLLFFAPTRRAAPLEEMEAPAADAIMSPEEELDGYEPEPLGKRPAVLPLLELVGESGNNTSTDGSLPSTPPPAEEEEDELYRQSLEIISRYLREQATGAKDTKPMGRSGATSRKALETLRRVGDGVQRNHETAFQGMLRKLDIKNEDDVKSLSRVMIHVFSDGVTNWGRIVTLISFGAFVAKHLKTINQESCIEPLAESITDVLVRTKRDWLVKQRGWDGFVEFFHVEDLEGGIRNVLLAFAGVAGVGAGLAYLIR

No constants are given. Whether binding was seen depends on the method and setting. Binding seen in cells or lysates may run through a third protein. A yes stands for co-enrichment or nearness to the bait. Other partners may have been found. Where a sequence is shown, tags or fusion partners need not be part of it.

The assay deals with T1, Tripartite motif containing 59 (TRIM59), flag-tagged, over-expressed (UniProt Q8IWR1).
T1 sequence: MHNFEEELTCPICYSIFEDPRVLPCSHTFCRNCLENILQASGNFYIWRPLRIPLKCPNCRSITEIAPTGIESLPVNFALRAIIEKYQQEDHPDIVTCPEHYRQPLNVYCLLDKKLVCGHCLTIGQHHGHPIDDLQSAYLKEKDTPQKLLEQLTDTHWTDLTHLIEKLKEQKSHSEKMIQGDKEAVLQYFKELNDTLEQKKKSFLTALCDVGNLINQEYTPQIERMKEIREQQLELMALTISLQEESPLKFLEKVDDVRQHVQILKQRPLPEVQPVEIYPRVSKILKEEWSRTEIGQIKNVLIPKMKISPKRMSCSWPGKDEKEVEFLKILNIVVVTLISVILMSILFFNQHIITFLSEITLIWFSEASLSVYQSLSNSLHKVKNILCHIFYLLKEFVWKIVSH
Nature of the assay: affinity purification with mass spectrometry; lysate (Western and IP cell lysis buffer) of PASMCs infected with TRIM59 over-expression; immunoprecipitated with anti-flag antibody crosslinked to beads; eluted proteins identified by HPLC-MS/MS.

On to “Growth factor receptor-bound protein 2 (from UniProt P62993 1-217)”, for which the binding result is “binds”.

For the substance “Nucleoprotein TPR (from UniProt P12270 1-2363)”, the binding result was “binds”.

As for “Polypyrimidine tract-binding protein 1 (from UniProt P26599 1-557)”, the binding result is listed as “binds”.

As to “Induced myeloid leukemia cell differentiation protein Mcl-1 (from UniProt Q07820 1-350)”, the binding result is “binds”.
